The target in this test is EBV-Z (wild type, from expression plasmid) (Epstein-Barr virus) (UniProt P03206). The experiment in a line: co-IP.

Results are given in words; binding and its absence hold for the method and conditions named. Binding seen in cells or lysates may run through a third protein.

As for “K-RTA-DLR (K-RTA with deletion of the leucine heptapeptide repeat region) (from UniProt F5HCV3 1-691)”, the binding entry is listed as “no binding”.
